In PMC6642083, “Structural basis of tubulin detyrosination by VASH2/SVBP heterodimer” (Nature Communications, 2019) one finds binding data, which are given here for 4 substances.

By UniProt entry, the sequences of proteins in these tests, tags left out. Where a name states a change or a piece, a line headed by the entry shows the natural chain unless it says otherwise.
UniProt Q8C5G2: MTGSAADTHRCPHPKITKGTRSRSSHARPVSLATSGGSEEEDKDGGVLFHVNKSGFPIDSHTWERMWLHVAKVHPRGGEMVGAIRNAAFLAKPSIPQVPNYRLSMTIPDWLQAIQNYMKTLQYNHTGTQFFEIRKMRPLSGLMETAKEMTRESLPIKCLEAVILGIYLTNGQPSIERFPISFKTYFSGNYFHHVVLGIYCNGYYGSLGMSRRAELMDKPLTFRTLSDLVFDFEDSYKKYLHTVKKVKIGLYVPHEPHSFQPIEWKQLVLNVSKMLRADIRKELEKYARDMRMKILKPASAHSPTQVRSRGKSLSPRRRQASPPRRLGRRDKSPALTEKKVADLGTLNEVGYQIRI

These are yes or no findings as the source states them, for the method shown. Some results given as binding are weak or reduced against the parent protein; the word gives no strength.

Experiment [1] addresses T1, SVBP_(1–66) (Mus musculus) (UniProt Q99LQ4).
T1 sequence: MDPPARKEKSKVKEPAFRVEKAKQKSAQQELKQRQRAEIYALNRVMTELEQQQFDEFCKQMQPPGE
In words: AUC; sedimentation velocity, 20, 40 and 70 μM VASH2 1–355/SVBP 1–66 complex, 25 mM Tris-HCl pH 8.0, 200 mM NaCl, 18 °C, c(s) model; both purified.

Experiment [2] deals with T1, SVBP_(1–66) (Mus musculus). In words: crystal structure; VASH2 1–355/SVBP 1–66 heterodimer, I3C-soaked crystals, SAD, space group C222_1, 2.5 Å; 0.1 M HEPES pH 7.0, 1 M (NH4)2SO4, 1.125 M KCl, 18 °C; both purified.
The target of experiment [3] is T1, SVBP_(1–66) (Mus musculus). In words: crystal structure; tail peptide (1 mM) co-crystallized with VASH2 1–355(C158A)/SVBP 1–66 (5 mg/ml), 2.5 Å; 0.1 M HEPES pH 7.0, 1 M (NH4)2SO4, 1.105 M KCl, 18 °C; both purified.
Experiment [4] concerns the target VASH2_(1–355)/SVBP_(1–66) heterodimer (Mus musculus) (UniProt Q8C5G2+Q99LQ4). In words: AUC; sedimentation velocity, 20, 40 and 70 μM VASH2 1–355/SVBP 1–66 complex, 25 mM Tris-HCl pH 8.0, 200 mM NaCl, 18 °C, c(s) model; both purified.
Experiment [5] addresses T1, SVBP_(1–66) (Mus musculus). In words: crystal structure; VASH2 47–355/SVBP 1–66 heterodimer, molecular replacement, 2.2 Å; 0.1 M BIS-TRIS propane pH 7.0, 2.0 M sodium formate, 18 °C; both purified.

“VASH2_(1–355) (from UniProt Q8C5G2 1-355) (enzyme)”: the binding entry in experiment [1] and in experiment [2] was “binds” throughout.

For “VASH2_(1–355)(C158A) (from UniProt Q8C5G2 1-355) (enzyme)”, the binding entry in experiment [3] is “binds”. “VASH2_(1–355)/SVBP_(1–66) heterodimer (from UniProt Q8C5G2 1-355; Q99LQ4 1-66) (complex)”: in experiment [4], the binding entry is “no binding (tested: 20–70 μM)”. Take “VASH2_(47–355) (from UniProt Q8C5G2 47-355) (domain or fragment)”: the binding result in experiment [5] is “binds”.
